{
  "source": "patent US11540999B2",
  "about": "“Deodorant compositions” (The Procter & Gamble Company, priority 2017, dated 2023)",
  "test_system": "two key underarm bacteria strains",
  "test": "Raw material microbial inhibition, verbal summary of Table 2",
  "type": "cell-based",
  "details": "both strains of Table 2, in words",
  "procedure": "The data in Table 2 above was generated with the following test method.\n3. Microbial Strains • Staphylococcus epidermidis (clinical isolate) • Corynebacterium mucofaciens (clinical isolate)\nIn row A of a 96 deep well plate pipette 180 ul of sterile BHI with 1% Tween 80 as a negative growth control. All other wells receive 180 ul of inoculum. From the master plate introduce 20 ul to the corresponding row in the test plate using an 8-channel pipette. Loaded plates are placed on a plate shaker in the 37° C. incubator and incubated overnight. The next day read the O.D. 600 on a plate reader. The MIC is the last well from the right that has no bacterial growth.",
  "note": "For at least one compound, name, drawing or mass did not settle the structure.",
  "data": [
    {"compound": "N=C(N)c1ccc(OCCCCCCOc2ccc(C(=N)N)cc2)cc1", "note": "[Hexamidine]", "values": [
      {"measurement": "performance against the bacteria as raw materials", "value": "perform particularly well"}
    ]}
  ]
}
